From publication PMC12288273
These are yes or no findings as the source states them, for the method shown. Binding seen in cells or lysates may run through a third protein. Binding can be weak; no strength is given. Blank lines part the entries; values can stand above or below the substance they belong to.

Sequences of proteins named here, by UniProt entry; tags and fusion partners are left off. A change or cut given only in a name is not applied to a line headed by its entry. Residues count along the entry.
UniProt P16871: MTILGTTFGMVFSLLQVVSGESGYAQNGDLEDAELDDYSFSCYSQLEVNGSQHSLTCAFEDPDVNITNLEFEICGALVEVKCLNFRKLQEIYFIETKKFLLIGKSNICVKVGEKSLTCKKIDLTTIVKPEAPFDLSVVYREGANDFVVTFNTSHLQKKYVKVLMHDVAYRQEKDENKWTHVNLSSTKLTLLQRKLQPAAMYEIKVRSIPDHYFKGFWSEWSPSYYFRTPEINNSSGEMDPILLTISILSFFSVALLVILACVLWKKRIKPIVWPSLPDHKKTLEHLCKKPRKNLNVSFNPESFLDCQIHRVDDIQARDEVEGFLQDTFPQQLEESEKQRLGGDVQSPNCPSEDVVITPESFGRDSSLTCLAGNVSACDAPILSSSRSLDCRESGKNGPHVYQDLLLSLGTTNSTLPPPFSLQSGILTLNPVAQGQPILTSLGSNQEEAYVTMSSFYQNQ
myc-IL-7R 1–414: residues 21-414 of P16871
myc-IL-7R 1–364: residues 21-364 of P16871
myc-IL-7R 1–314: residues 21-314 of P16871
UniProt P25774: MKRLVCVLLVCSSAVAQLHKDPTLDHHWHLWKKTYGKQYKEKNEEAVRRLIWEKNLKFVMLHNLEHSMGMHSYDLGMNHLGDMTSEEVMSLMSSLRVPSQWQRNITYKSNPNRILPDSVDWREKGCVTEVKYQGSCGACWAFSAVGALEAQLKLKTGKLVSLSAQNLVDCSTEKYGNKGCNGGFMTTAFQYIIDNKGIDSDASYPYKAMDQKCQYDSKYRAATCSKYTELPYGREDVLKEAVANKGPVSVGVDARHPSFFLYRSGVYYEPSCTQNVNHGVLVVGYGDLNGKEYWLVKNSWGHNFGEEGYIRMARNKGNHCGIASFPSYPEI

Tests used:
[1] = molecular target: IL-7R-RFP (pCMV6-AC-mRFP-IL-7R) (UniProt P16871); assay: FRET or BRET; OEC-M1 cells co-transfected with CTSS-mGFP (donor) and IL-7R-mRFP or IL-7R 1-264-mRFP (acceptor), 48 h, fixed, confocal microscopy
[2] = molecular target: myc-IL-7R (pCDNA3.1 myc-IL-7R) (UniProt P16871); assay: co-IP; OEC-M1 cells transfected with myc-tagged IL-7R or truncations, 48 h; myc tag precipitated with anti-myc antibody; CTSS detected by Western blot
myc-IL-7R 1–314 = myc-IL-7R 1–314 (UniProt P16871); assay: as above
myc-IL-7R 1–364 = myc-IL-7R 1–364 (UniProt P16871); assay: as above
myc-IL-7R 1–414 = myc-IL-7R 1–414 (UniProt P16871); assay: as above
[3] = molecular target: Cathepsin S (human (endogenous in OEC-M1)) (UniProt P25774); assay: co-IP; CTSS precipitated with anti-CTSS antibody from lysate of OEC-M1 cells pretreated with siScramble or siCTSS; IL-7R detected by Western blot; protein A Sepharose, 4 °C overnight, 0.5% NP-40

binding [1]: binds
Substance: CTSS-GFP (pCMV6-AC-mGFP-CTSS) (from UniProt P25774) (enzyme)

binding [2]: binds | binding (myc-IL-7R 1–314): binds | binding (myc-IL-7R 1–364): binds | binding (myc-IL-7R 1–414): binds
Substance: Cathepsin S (from UniProt P25774) (enzyme)

binding [3]: binds
Substance: IL-7 receptor (from UniProt P16871 21-459)
